Test results reported in PubChem BioAssay AID540276 (National Center for Advancing Translational Sciences (NCATS), 2011).
Screen size: about 300,000 compounds; about 5,400 (1.8%) were called active. The inconclusive results got no clear call from the source; some entries with a clear call stand among them for comparison. The call rests on the fitted dose curve; tested in HEK293 cells. A potency beside an inconclusive call is a rough fit, not a confirmed value.

Assay: qHTS for inhibitors of binding or entry into cells for Marburg Virus
Details: Marburg virus pseudotyped entry inhibition, cell reporter; activity change, negative = inhibition: at 37.8 µM (top of the series) unless noted
On the % scale 0 is the no-effect control and ±100 the full control effect; potency means the concentration at half of the fitted maximal effect.

Compound	Potency	activity change, negative = inhibition
COc1cc(/C=N\NC(=O)CC(=O)NCCc2ccccc2)ccc1O	inconclusive: 1.12 µM [activator, full curve, poor fit]	–
CCC(C)(C)c1ccc(OCCN2C(=O)NC(C)(C)C2=O)cc1	–	inactive: 2.54%
Cc1ccccc1OCC(O)Cn1nnc2ccccc21 (stereo not given)	inconclusive: 1.26 µM [activator, partial curve, poor fit]	–
CC(=O)Nc1ccc(S(=O)(=O)NCCC(=O)Nc2ccc(C)c(F)c2)cc1	inconclusive: 14.1 µM [activator, single point]	–
Cc1ccccc1N1C(=O)C[C@@H](Sc2nnc(-c3ccccc3)o2)C1=O	–	inactive: 9.29%
Cc1ccc(-c2nnc(NCc3nc4ccccc4[nH]3)c3ccccc23)cc1S(=O)(=O)N1CCCCC1	inconclusive: 35.5 µM [inhibitor, single point]	–
CC(=O)c1cccc(Nc2cc(C)nc3ccc(C)cc23)c1	inconclusive: 20 µM [inhibitor, partial curve, poor fit]	–
CCCC(=O)NC(c1ccc(OCC)cc1)c1ccc(OC)c(OC)c1 (stereo not given)	–	inactive: -24%
CSc1ccccc1NC(=O)CN(c1ccccc1Br)S(C)(=O)=O	inconclusive: 3.16 µM [inhibitor, single point]	–
O=C(NC1CC2CCCC(C1)N2C(=O)Nc1ccc(F)cc1)c1ccccc1 (stereo not given)	–	inactive: -17.1% [at 46.1 µM]
CCc1cccc(NC(=O)Cn2c(=O)n(-c3cccc(Cl)c3)c(=O)c3c2c2cc(C)ccc2n3C)c1	–	inactive: 0.0182% [at 46.1 µM]
COC(=O)[C@H](CCSC)NC(=O)c1cc2c(cn1)[nH]c1ccccc12	inconclusive: 3.55 µM [activator, full curve, poor fit]	–
COc1ccc(-c2nnc(NC(=O)c3ccc([N+](=O)[O-])o3)o2)c(OC)c1	–	inactive: -14%
Cc1ccc(-c2nnc(N3CCN(C(=O)Cn4c(=O)n(C)c5ccccc54)CC3)c3ccccc23)cc1	–	inactive: -0.244%
CCN(CC)S(=O)(=O)c1cccc(-c2nnc(SCc3nc4ccccc4s3)o2)c1	inconclusive: 35.5 µM [inhibitor, single point]	–
Cc1ccc(Cl)cc1N1CCN(C(=O)C2CCCN(S(=O)(=O)c3cnc[nH]3)C2)CC1 (stereo not given)	inconclusive: 16.4 µM [inhibitor, single point]	–
CC(C)N1CCN(Cc2nc(-c3ccccc3)cs2)CC1CCO (stereo not given)	inconclusive: 0.562 µM [activator, full curve, poor fit]	–
CC(C)OP(=O)(OC(C)C)C(Nc1ccccc1)c1ccccc1C(F)(F)F (stereo not given)	inconclusive: 3.55 µM [activator, single point]	–
O=C(O)c1c[nH]c2ccc(S(=O)(=O)N3CCOCC3)cc12	inconclusive: 2.24 µM [inhibitor, full curve, poor fit]	–
CC(C)(C)c1ccc(S(=O)(=O)NNC(=O)C2CCN(Cc3cccc(F)c3)CC2)cc1	inconclusive: 25.1 µM [inhibitor, single point]	–
COc1ccccc1C(=O)NNC(=O)C(=O)Nc1cccc(Cl)c1C	–	inactive: -22.7% [at 46.1 µM]
CC(=O)c1cccc(NC(=O)c2cc(-c3ccco3)on2)c1	–	inactive: 6.88% [at 46.1 µM]
Cn1cnc2c(NC3CCCC3)ncnc21	inactive	–

Whole records, looked up by structure. Order of values: Potency | activity change, negative = inhibition
Cc1ccc(-c2nnc(NCc3nc4ccccc4[nH]3)c3ccccc23)cc1S(=O)(=O)N1CCCCC1 reads inconclusive: 35.5 µM [inhibitor, single point] | –
CC(C)OP(=O)(OC(C)C)C(Nc1ccccc1)c1ccccc1C(F)(F)F (stereo not given) reads inconclusive: 3.55 µM [activator, single point] | –

More results follow:

Compound	Potency	activity change, negative = inhibition
CC(=O)Nc1ccc(NC(=O)c2ccc(OCc3c(C)noc3C)cc2)cc1	–	inactive: -2.76% [at 46.1 µM]
CCCN(CCC)C(=O)C1CC(=O)OC12CCOC(C)(C)C2 (stereo not given)	inconclusive: 6.31 µM [activator, single point]	–
CN(C)CCNc1oc(COc2ccc(Cl)cc2)nc1C#N	inconclusive: 11.2 µM [inhibitor, partial curve, poor fit]	–
C=CCn1c(SCC(=O)N2CCCCC2)nnc1-c1ccncc1	inconclusive: 8.91 µM [inhibitor, partial curve, poor fit]	–
COC(=O)c1ccccc1-c1ccc(/C=N/Nc2nc(N3CCCC3)nc(N3CCCC3)n2)o1	inconclusive: 35.5 µM [inhibitor, single point]	–
O=C(NNC(=O)c1ccco1)c1csc(N2CCOCC2)n1	–	inactive: 22.5%
CCOC(=O)C1CN(S(=O)(=O)c2cccs2)c2ccc(CC(=O)OC)cc2O1 (stereo not given)	inconclusive: 17.8 µM [activator, partial curve]	–
CS(=O)(=O)N1CCC(C(=O)NCc2ccc(Cl)cc2Cl)CC1	–	inactive: 0% [at 46.1 µM]
O=C(Nc1nc2cc3c(cc2s1)OCO3)C1CC1	inconclusive: 35.5 µM [inhibitor, single point]	–
O=[N+]([O-])c1ccc(N/N=C/c2ccccc2)cc1	inconclusive: 1.12 µM [activator, partial curve, poor fit]	–
Nn1c(Cc2cccc3ccccc23)nnc1SCc1c(F)cccc1Cl	–	inactive: -6.36%
COc1ccc(O[C@H]2C=C[C@@H](c3ccccc3)O[C@H]2COC(=O)CCC(C)=NO[C@@H](C)c2cc(-c3c(C)cc(C)cc3C)no2)cc1	–	inactive: 3.08% [at 14.2 µM]
CC(NCc1ccccc1C(F)(F)F)C(O)c1ccccc1 (stereo not given)	inconclusive: 35.5 µM [inhibitor, single point]	–
Cc1cc2nc(CS(=O)(=O)c3ccccc3)cc(=O)n2[nH]1	inconclusive: 0.562 µM [inhibitor, partial curve, poor fit]	–
CC(=O)C1=C(C)OC(N)=C(C#N)C1c1cc([N+](=O)[O-])ccc1Cl (stereo not given)	inconclusive: 28.2 µM [inhibitor, single point]	–
O=C(c1ccc(Cl)c([N+](=O)[O-])c1)N(Cc1ccccc1)C1CCS(=O)(=O)C1 (stereo not given)	–	inactive: -1.07%
CCN1CCCC1CNCc1cccc(OC)c1OCc1ccc(F)cc1 (stereo not given)	inconclusive: 17.8 µM [inhibitor, single point]	–
CC1=CC(C)C(C(=O)O)C(C(=O)N2CCN(C)CC2)C1 (stereo not given)	–	inactive: 0% [at 46.1 µM]
Cc1cccc(C)c1NC(=O)CN(C)C(=O)c1cccc(NS(=O)(=O)c2ccccc2)c1	inconclusive: 5.62 µM [inhibitor, single point]	–
Cc1nn(C)cc1/C=N/O	inconclusive: 1.16 µM [inhibitor, single point]	–
Cc1cc(C(=O)NCCC(c2ccccc2)c2ccccc2)c(C)o1	inconclusive: 14.1 µM [inhibitor, single point]	–
O=C(CSc1nc2ccccc2c(=O)n1-c1ccc(F)cc1)NCc1ccco1	inconclusive: 0.073 µM [inhibitor, full curve, poor fit]	–
